Experimental findings from paper PMC9280087 are described below.

Protein sequences, listed by entry. Tags and fused reporters are not part of them.
UniProt P46940: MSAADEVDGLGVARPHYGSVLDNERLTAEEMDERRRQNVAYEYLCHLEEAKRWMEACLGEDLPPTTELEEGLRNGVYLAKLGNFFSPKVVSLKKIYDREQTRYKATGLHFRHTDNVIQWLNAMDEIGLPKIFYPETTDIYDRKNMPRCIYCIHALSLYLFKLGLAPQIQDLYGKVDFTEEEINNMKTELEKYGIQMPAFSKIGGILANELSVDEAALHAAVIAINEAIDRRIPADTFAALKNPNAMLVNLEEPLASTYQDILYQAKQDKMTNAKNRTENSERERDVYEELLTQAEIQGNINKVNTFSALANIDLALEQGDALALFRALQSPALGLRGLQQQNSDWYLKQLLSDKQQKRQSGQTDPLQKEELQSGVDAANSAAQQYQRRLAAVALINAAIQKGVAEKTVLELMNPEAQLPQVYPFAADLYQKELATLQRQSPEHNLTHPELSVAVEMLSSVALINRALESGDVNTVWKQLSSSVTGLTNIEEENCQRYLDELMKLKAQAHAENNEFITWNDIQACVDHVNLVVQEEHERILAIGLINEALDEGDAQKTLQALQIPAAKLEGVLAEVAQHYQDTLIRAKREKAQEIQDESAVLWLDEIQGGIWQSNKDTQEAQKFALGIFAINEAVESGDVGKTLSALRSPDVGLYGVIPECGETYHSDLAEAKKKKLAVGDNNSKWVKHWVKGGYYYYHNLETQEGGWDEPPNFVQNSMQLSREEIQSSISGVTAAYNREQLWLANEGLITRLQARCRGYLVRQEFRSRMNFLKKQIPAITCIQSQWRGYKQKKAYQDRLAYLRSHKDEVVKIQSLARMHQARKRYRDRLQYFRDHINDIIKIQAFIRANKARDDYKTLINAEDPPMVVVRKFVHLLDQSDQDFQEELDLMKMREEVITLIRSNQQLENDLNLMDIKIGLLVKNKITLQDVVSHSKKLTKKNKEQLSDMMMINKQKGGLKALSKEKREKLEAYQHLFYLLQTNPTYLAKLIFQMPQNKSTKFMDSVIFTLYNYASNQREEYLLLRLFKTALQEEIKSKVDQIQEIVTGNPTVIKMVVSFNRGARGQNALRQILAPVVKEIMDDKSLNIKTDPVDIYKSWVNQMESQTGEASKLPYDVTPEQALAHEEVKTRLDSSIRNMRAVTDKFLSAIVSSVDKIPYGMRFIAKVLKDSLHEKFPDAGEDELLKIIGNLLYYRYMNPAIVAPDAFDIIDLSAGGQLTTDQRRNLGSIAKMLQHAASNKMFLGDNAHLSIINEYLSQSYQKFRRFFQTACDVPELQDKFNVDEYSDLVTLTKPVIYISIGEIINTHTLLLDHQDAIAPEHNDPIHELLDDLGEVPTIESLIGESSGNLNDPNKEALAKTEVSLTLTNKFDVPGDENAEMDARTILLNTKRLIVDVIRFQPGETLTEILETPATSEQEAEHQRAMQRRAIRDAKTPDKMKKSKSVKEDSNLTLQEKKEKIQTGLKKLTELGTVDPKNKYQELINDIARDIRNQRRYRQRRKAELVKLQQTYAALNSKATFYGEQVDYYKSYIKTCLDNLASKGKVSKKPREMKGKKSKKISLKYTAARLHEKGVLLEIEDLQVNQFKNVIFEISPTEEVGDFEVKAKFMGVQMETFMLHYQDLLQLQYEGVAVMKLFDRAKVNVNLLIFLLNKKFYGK
UniProt P35222: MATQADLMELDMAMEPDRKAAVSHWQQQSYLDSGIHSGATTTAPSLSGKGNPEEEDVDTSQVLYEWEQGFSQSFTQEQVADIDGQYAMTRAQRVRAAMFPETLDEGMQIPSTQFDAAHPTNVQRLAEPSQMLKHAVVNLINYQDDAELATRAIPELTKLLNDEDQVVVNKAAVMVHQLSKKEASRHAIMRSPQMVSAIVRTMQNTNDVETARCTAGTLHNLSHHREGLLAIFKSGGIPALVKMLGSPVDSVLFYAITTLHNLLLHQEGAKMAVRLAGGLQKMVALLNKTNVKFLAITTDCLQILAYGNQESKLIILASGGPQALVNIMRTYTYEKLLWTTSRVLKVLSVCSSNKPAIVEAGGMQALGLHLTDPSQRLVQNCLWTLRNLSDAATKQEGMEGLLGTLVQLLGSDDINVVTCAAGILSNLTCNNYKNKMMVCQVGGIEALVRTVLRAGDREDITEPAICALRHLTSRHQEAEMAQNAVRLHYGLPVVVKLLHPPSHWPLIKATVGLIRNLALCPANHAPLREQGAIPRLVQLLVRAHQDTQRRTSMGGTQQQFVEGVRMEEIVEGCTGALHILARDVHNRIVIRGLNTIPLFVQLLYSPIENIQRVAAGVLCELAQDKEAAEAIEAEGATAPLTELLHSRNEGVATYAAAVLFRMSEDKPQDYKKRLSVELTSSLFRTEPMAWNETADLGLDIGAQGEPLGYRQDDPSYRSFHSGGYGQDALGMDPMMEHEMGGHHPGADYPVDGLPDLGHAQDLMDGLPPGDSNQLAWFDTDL

Results are given in words; binding and its absence hold for the method and conditions named. In cells and extracts the contact can be indirect. Some entries that bind do so weakly or less than the wild type.

This test deals with IQ-GTPase-activating protein 1 (human (endogenous in A549)) (UniProt P46940). The test is described as follows: co-IP; A549 cell lysates (cells infected with WT or ΔompA A. baumannii, or transfected with pCMV-ompA) incubated with rabbit IgG or primary antibodies overnight at 4°C, protein A magnetic beads; Western blot; ratios of co-precipitated to precipitated protein quantified. A general note: In western blotting, separated proteins are transferred to a membrane and probed.

Turning to β-catenin (from UniProt P35222 1-781), the binding result is “binds”.
